Source: US10821080B2, “Microencapsulation process with solvent and salt” (Evonik Corporation, priority 2008, dated 2020)
The name of at least one read-out is uncertain.

Experiment: Equilibrium/saturation study of solvent solubility in PVA solutions with increasing salt concentration
Format: physicochemical
Details: 2% PVA aqueous solution; varying sodium chloride weight %; FIG. 1
Method: An equilibrium/saturation study was performed to measure solvent solubilities in PVA solutions in increasing salt concentration levels. The saturation solubility in weight % of ethyl acetate and methylene chloride were individually tested with varying sodium chloride weight % in a 2% PVA aqueous solution. […] At about 15 weight % sodium chloride contention, the PVA began to salt out of the solution.

Compound: ClCCl [methylene chloride]
- saturation solubility in weight % as the sodium chloride content was increased: decreased
